The list shows a part of the results.
Key:
Test in all cases: log2 fold change, soluble protein after heating vs DMSO (PISA); higher = thermal stabilisation; K562 cells, 10 uM, 30 min; active = over 0.2 and 3.5 SD of the protein, either way, in both replicates (recomputed)
[1] = compound: NC(=O)Nc1cc(-c2cccc(F)c2)sc1C(=O)N[C@H]1CCCNC1
Summary of the method: (§1)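 K562 cells (2×10^6 cells/mL) were treated with 10 μM compound for 30 min, and aliquots were heated for 3 min over 48°C-58°C. Pooled aliquots were extracted in PBS with 0.5% NP-40 at 4°C, and the supernatant after 21,000xg for 90 min was measured by TMTpro 16plex LC-MS/MS with channel sums equalised. Reported thermal stability, relative to control samples and from duplicates, is a log2 fold change.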

Amino acid sequences for entries named in this document (tags omitted). A change or cut given only in a name is not applied to a line headed by its entry.
UniProt Q5T2R2: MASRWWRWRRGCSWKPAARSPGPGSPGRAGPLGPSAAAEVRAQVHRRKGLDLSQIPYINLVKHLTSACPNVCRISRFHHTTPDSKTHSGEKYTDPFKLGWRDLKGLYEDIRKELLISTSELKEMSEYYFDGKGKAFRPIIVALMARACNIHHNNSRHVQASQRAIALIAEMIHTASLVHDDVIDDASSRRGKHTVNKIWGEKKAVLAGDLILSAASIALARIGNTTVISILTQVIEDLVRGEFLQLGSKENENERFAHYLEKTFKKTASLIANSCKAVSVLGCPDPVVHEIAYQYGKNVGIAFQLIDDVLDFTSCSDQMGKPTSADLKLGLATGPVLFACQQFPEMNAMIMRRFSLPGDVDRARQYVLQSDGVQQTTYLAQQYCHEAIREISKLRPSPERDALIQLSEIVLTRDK
UniProt Q9H0N5: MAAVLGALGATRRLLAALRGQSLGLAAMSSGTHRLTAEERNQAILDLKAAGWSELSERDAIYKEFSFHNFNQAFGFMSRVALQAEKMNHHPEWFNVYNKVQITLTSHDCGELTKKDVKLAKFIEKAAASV
UniProt O43924: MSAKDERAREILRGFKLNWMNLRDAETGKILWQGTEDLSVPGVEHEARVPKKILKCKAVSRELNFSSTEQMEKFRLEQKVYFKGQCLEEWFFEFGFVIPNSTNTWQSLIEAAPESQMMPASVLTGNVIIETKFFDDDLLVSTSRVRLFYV
UniProt Q9NUG6, whole entry, looked up: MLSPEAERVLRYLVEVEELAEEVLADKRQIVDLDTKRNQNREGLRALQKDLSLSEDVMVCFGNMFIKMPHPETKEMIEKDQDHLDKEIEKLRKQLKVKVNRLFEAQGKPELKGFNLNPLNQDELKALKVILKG
UniProt P12955: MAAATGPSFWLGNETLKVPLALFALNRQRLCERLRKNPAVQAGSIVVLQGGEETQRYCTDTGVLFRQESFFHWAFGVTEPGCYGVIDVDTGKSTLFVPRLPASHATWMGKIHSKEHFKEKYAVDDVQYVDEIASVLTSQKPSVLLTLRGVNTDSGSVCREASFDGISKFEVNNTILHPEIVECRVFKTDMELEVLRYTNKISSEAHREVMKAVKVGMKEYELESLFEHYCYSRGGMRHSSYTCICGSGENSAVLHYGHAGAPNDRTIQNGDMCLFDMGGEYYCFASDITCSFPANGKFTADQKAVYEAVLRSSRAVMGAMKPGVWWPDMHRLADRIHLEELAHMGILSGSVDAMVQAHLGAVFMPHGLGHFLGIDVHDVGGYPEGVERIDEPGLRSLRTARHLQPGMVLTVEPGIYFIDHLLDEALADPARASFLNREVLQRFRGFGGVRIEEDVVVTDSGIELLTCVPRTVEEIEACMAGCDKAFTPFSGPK
UniProt Q13310, whole entry, looked up: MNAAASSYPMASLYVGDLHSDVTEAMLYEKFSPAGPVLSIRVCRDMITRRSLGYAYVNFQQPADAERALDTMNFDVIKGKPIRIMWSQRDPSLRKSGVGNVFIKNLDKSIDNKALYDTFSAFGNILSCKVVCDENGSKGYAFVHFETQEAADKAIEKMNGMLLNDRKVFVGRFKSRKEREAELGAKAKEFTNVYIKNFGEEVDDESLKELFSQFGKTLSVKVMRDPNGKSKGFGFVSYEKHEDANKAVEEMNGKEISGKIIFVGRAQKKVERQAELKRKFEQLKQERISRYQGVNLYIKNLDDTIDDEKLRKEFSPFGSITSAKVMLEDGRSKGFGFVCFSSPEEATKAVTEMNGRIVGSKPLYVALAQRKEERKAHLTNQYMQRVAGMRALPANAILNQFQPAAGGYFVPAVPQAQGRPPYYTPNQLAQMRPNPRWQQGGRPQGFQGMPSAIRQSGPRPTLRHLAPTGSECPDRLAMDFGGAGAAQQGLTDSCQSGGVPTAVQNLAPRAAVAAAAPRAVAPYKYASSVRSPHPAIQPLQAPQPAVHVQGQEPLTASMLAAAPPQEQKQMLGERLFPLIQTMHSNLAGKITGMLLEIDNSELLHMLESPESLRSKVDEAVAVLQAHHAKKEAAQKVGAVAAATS
UniProt P05165: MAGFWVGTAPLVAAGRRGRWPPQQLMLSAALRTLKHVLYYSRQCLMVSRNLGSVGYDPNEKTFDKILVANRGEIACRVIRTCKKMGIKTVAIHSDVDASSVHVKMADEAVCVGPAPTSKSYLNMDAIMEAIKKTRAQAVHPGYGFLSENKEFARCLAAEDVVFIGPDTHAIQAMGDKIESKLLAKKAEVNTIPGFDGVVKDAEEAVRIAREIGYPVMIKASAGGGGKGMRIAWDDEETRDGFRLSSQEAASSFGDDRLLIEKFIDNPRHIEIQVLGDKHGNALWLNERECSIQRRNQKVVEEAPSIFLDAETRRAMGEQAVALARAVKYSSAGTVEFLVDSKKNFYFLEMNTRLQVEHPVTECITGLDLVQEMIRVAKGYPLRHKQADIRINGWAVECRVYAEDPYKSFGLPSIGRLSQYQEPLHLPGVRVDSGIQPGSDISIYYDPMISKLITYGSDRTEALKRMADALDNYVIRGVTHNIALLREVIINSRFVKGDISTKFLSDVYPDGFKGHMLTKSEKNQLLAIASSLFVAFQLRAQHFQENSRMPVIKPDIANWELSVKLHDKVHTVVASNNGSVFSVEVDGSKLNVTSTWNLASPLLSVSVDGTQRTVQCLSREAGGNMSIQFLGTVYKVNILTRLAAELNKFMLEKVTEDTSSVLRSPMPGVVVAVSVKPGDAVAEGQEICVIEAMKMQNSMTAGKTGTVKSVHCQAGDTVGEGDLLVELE
UniProt P30101, whole entry, looked up: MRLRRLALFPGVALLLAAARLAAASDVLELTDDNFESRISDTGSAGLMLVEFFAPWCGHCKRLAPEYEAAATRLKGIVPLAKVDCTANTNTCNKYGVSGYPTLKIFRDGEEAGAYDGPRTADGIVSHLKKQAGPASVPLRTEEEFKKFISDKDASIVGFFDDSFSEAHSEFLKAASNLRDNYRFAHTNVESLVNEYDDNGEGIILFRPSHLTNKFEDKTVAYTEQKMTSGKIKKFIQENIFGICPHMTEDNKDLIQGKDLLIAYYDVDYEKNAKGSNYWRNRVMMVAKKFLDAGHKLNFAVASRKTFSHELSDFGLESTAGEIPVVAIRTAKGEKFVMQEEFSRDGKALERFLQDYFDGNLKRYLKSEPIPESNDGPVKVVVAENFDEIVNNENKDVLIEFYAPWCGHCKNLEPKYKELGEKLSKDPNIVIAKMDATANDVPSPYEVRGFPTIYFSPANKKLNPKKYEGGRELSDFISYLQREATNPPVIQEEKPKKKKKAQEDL
UniProt P61457: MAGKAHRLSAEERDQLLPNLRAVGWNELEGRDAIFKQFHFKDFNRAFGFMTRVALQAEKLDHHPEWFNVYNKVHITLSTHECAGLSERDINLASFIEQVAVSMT
UniProt Q13442: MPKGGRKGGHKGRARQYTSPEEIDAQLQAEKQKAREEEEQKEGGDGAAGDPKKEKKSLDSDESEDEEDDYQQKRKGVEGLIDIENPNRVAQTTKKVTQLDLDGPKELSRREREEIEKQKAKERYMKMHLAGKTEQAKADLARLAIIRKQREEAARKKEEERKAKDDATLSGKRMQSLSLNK
UniProt P29122: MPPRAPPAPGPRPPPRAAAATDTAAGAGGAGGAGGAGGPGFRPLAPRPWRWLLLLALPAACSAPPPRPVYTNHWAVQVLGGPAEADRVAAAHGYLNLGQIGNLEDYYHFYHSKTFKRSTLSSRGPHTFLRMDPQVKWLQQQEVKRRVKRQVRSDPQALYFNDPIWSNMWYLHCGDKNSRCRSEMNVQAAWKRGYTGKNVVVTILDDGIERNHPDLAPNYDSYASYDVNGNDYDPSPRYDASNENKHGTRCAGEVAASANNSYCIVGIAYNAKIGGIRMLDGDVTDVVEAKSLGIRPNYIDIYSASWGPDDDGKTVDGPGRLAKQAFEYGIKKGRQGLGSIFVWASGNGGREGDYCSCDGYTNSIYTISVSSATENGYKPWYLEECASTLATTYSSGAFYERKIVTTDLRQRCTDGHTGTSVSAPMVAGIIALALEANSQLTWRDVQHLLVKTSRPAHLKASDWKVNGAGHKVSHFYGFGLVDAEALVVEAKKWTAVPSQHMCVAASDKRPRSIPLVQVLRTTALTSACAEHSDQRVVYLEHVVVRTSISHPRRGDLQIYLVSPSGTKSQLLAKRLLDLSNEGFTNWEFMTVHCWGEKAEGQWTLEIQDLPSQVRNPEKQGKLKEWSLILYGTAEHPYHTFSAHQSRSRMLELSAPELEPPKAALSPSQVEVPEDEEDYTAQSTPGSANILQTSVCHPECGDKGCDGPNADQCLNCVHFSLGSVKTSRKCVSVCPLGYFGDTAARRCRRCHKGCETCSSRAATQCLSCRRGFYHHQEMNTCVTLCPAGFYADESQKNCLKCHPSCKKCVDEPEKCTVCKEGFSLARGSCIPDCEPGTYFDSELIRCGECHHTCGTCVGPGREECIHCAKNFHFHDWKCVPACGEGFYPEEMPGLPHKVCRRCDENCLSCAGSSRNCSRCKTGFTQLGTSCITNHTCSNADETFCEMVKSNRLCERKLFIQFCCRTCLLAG
UniProt Q96AQ6: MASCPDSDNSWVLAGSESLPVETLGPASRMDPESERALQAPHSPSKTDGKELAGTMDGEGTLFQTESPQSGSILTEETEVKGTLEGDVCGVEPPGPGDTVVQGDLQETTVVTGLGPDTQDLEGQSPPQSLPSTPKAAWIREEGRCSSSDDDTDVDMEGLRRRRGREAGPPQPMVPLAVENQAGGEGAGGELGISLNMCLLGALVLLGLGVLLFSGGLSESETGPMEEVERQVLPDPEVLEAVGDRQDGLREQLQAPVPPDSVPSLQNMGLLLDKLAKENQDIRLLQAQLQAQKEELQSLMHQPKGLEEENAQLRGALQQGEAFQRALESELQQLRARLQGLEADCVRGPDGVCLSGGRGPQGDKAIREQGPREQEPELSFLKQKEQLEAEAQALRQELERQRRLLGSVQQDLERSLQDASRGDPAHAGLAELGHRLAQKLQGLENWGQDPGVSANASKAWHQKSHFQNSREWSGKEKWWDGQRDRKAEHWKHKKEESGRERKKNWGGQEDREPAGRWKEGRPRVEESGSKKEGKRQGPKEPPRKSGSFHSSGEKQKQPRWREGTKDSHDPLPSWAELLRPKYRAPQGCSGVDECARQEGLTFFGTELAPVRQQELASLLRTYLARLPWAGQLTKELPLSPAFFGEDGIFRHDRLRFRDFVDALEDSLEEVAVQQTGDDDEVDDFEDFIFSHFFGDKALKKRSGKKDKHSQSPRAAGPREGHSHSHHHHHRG
UniProt P11177, whole entry, looked up: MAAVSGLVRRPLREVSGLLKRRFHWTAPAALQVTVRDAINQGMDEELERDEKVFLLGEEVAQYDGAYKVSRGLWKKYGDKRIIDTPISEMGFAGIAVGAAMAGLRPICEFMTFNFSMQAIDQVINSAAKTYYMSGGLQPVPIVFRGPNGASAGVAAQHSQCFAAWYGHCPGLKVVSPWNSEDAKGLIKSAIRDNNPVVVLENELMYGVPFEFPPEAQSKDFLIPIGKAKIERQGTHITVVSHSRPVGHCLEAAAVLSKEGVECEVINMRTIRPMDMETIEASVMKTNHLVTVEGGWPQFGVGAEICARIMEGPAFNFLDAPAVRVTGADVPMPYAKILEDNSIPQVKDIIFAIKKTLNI
UniProt O75459: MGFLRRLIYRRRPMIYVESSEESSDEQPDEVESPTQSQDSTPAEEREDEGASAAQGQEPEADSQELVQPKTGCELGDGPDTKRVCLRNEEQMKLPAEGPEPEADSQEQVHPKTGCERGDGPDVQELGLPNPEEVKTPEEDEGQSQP
UniProt Q9BYG5: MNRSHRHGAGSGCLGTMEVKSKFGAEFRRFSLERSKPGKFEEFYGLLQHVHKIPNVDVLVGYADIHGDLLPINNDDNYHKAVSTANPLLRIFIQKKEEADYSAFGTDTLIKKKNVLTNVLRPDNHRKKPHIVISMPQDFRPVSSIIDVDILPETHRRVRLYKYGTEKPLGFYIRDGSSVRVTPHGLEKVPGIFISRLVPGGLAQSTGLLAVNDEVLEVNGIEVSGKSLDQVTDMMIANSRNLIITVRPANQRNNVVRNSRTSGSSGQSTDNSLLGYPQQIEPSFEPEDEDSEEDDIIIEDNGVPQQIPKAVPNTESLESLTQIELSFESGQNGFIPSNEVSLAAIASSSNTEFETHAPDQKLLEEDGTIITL
UniProt Q9H074: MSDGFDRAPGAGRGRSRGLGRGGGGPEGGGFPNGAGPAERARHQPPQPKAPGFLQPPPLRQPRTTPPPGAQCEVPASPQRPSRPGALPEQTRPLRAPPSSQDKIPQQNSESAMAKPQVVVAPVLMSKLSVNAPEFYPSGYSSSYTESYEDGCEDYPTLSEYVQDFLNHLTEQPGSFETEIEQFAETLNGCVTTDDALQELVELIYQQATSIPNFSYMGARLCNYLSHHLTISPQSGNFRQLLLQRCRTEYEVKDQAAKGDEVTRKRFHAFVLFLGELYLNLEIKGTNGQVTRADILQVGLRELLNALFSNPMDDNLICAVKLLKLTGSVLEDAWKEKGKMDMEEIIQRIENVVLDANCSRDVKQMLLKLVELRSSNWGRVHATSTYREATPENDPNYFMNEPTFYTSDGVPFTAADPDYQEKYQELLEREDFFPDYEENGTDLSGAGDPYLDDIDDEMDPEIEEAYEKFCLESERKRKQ

[2] = compound: NC(=O)c1cnc(N[C@@H]2CCCC[C@@H]2N)nc1Nc1cccc(-n2nccn2)c1
Summary of the method: as §1

[3] = compound: NC1(c2ccc(-c3nc4ccn5c(=O)[nH]nc5c4cc3-c3ccccc3)cc2)CCC1
Summary of the method: as §1

[4] = compound: NCC(=O)Nc1ccc(-n2nc(C(F)(F)F)cc2-c2ccc3c(ccc4ccccc43)c2)cc1
Summary of the method: as §1

entinostat = compound: Nc1ccccc1NC(=O)c1ccc(CNC(=O)OCc2cccnc2)cc1 [entinostat]
Summary of the method: as §1

vorinostat = compound: O=C(CCCCCCC(=O)Nc1ccccc1)NO [vorinostat]
Summary of the method: as §1

citarinostat = compound: O=C(CCCCCCNC(=O)c1cnc(N(c2ccccc2)c2ccccc2Cl)nc1)NO [citarinostat]
Summary of the method: as §1

silmitasertib = compound: O=C(O)c1ccc2c(c1)nc(Nc1cccc(Cl)c1)c1ccncc12 [silmitasertib]
Summary of the method: as §1

[5] = compound: O=C1NC(=O)C(c2cnc3ccccn23)=C1c1cn2c3c(cc(F)cc13)CN(C(=O)N1CCCCC1)CC2
Summary of the method: as §1

[6] = compound: c1cc(OCCN2CCCCC2)cc(-c2n[nH]c3ccc(-c4nnc[nH]4)cc23)c1
Summary of the method: as §1

entospletinib = compound: c1cn2cc(-c3ccc4cn[nH]c4c3)nc(Nc3ccc(N4CCOCC4)cc3)c2n1 [entospletinib]
Summary of the method: as §1

Measured: log2 fold change

PDSS1 (UniProt Q5T2R2)
inactive: [1] -0.009 | [2] -0.051 | [3] -0.127 | [4] -0.055 | entinostat -0.053 | vorinostat -0.09 | citarinostat 0.02 | silmitasertib -0.088 | [5] -0.181 | [6] -0.053 | entospletinib -0.079

PCBD2 (UniProt Q9H0N5)
inactive: [1] 0.008 | [2] -0.012 | [3] 0.011 | [4] -0.005 | entinostat 0.023 | vorinostat -0.009 | citarinostat -0.006 | silmitasertib 0.041 | [5] 0.005 | [6] 0.022 | entospletinib -0.004

PDE6D (UniProt O43924)
inactive: [1] 0.001 | [2] -0.113 | [3] 0.122 | [4] 0.025 | entinostat 0.125 | vorinostat -0.007 | silmitasertib 0.077 | [5] 0.009

PCCB isoform 2 (UniProt P05166)
inactive: [1] -0.003 | [2] -0.009 | [3] -0.052 | [4] 0.044 | entinostat -0.005 | vorinostat -0.007 | citarinostat -0.007 | silmitasertib -0.021 | [5] -0.019 | [6] -0.019 | entospletinib 0.023

PDRG1 (UniProt Q9NUG6)
inactive: [1] 0.004 | [2] -0.118 | [3] 0.018 | [4] -0.029 | entinostat 0.01 | vorinostat -0.017 | citarinostat -0.014 | silmitasertib 0.011 | [5] 0.018 | [6] -0.072 | entospletinib -0.032

PEPD (UniProt P12955)
inactive: [1] 0.023 | [2] -0.037 | [3] 0.003 | [4] -0.03 | entinostat -0.034 | vorinostat -0.019 | citarinostat 0.026 | silmitasertib -0.007 | [5] -0.021 | [6] 0.102 | entospletinib -0.029

PABPC4 isoform 3 (UniProt Q13310)
inactive: [1] -0.018 | [2] -0.017 | [3] 0.122 | [4] -0.013 | entinostat 0.027 | vorinostat 0.039 | citarinostat -0.009 | silmitasertib 0.047 | [5] 0.089 | [6] -0.113 | entospletinib 0.067

PCCA (UniProt P05165)
inactive: [1] 0.002 | [2] -0.066 | [3] -0.067 | [4] -0.022 | entinostat -0.004 | vorinostat 0.045 | citarinostat -0.011 | silmitasertib -0.051 | [5] -0.042 | [6] -0.062 | entospletinib 0.025

PDIA3 (UniProt P30101)
inactive: [1] 0.011 | [2] 0.004 | [3] -0.011 | [4] 0.059 | entinostat 0.026 | vorinostat -0.04 | citarinostat -0.012 | silmitasertib -0.006 | [5] 0.03 | [6] -0.068 | entospletinib 0.015

PCNA (UniProt P12004)
inactive: [1] 0.008 | [2] -0.002 | [3] -0.034 | [4] -0.017 | entinostat 0.005 | vorinostat -0.018 | citarinostat 0.008 | silmitasertib 0 | [5] -0.013 | [6] -0.04 | entospletinib -0.034

PDLIM4 (UniProt P50479)
inactive: [1] 0.045 | [2] -0.09 | [3] 0.019 | [4] -0.034 | entinostat -0.03 | vorinostat -0.023 | citarinostat 0.051 | silmitasertib -0.016 | [5] -0.073 | [6] -0.013 | entospletinib -0.036

Reprinted from the entries so far (two entries):
PCCB isoform 2 (UniProt P05166)
inactive: [1] -0.003 | [2] -0.009 | [3] -0.052 | [4] 0.044 | entinostat -0.005 | vorinostat -0.007 | citarinostat -0.007 | silmitasertib -0.021 | [5] -0.019 | [6] -0.019 | entospletinib 0.023

PDRG1 (UniProt Q9NUG6)
inactive: [1] 0.004 | [2] -0.118 | [3] 0.018 | [4] -0.029 | entinostat 0.01 | vorinostat -0.017 | citarinostat -0.014 | silmitasertib 0.011 | [5] 0.018 | [6] -0.072 | entospletinib -0.032

Next records follow:

PDIA4 (UniProt P13667)
inactive: [1] 0.02 | [2] 0.004 | [3] -0.018 | [4] 0.017 | entinostat 0.005 | vorinostat -0.023 | citarinostat 0.018 | silmitasertib -0.028 | [5] 0.037 | [6] -0.053 | entospletinib -0.011

PAGR1 (UniProt Q9BTK6)
inactive: [1] 0.114 | [2] 0.044 | [3] 0.036 | [4] 0.103 | entinostat 0.069 | vorinostat 0.022 | citarinostat 0.011 | silmitasertib 0.045 | [5] 0.022 | [6] -0.006 | entospletinib -0.071

PDPR (UniProt Q8NCN5)
inactive: [1] -0.018 | [2] -0.094 | [3] -0.182 | [4] -0.014 | entinostat 0 | vorinostat -0.031 | citarinostat 0.006 | silmitasertib -0.01 | [5] -0.039 | [6] 0.047 | entospletinib 0.035

PCBD1 (UniProt P61457)
inactive: [1] -0.062 | [2] -0.099 | [3] 0.015 | [4] 0.006 | entinostat 0.002 | vorinostat -0.028 | citarinostat 0.041 | silmitasertib 0.025 | [5] -0.016 | [6] -0.053 | entospletinib 0.04

PDCD5 (UniProt O14737)
inactive: [1] 0.198 | [2] -0.017 | [3] 0.055 | [4] -0.036 | entinostat 0.09 | vorinostat -0.013 | citarinostat 0.024 | silmitasertib -0.012 | [5] 0.163 | [6] -0.052 | entospletinib -0.016

PDAP1 (UniProt Q13442)
inactive: [1] 0.125 | [2] -0.03 | [3] 0.035 | [4] -0.01 | entinostat -0.013 | vorinostat -0.012 | citarinostat -0.029 | silmitasertib -0.045 | [5] 0.008 | [6] 0.039 | entospletinib 0.006

PES1 (UniProt O00541)
inactive: [1] 0.024 | [2] -0.023 | [3] 0.072 | [4] -0.021 | entinostat 0.003 | vorinostat 0.109 | citarinostat -0.031 | silmitasertib 0.122 | [5] 0.08 | [6] -0.087 | entospletinib -0.112

PCSK6 isoform 7 (UniProt P29122)
inactive: [1] -0.248 | [2] -0.249 | [3] -0.134 | [4] -0.149 | entinostat -0.073 | vorinostat -0.125 | citarinostat 0.258 | silmitasertib 0.056 | [6] -0.174 | entospletinib -0.092

PAPSS1 (UniProt O43252)
inactive: [1] -0.005 | [2] -0.05 | [3] -0.086 | [4] -0.042 | entinostat -0.009 | vorinostat 0.025 | citarinostat 0.023 | silmitasertib -0.015 | [5] -0.037 | [6] -0.027 | entospletinib 0.015

PBXIP1 (UniProt Q96AQ6)
inactive: [1] 0.023 | [2] -0.027 | [3] -0.029 | [4] -0.034 | entinostat -0.03 | vorinostat -0.035 | citarinostat 0.042 | silmitasertib 0.019 | [5] 0.014 | [6] -0.046 | entospletinib 0.001

PDHB (UniProt P11177)
inactive: [1] -0.024 | [2] -0.009 | [3] -0.061 | [4] 0.061 | entinostat -0.003 | vorinostat -0.01 | citarinostat -0.011 | silmitasertib -0.022 | [5] 0.132 | [6] -0.066 | entospletinib 0.112

PCMT1 isoform 2 (UniProt P22061)
inactive: [1] -0.019 | [2] -0.052 | [3] -0.043 | [4] -0.022 | entinostat 0.031 | vorinostat -0.035 | citarinostat 0.026 | silmitasertib -0.002 | [5] -0.018 | [6] 0.039 | entospletinib 0.057

PAGE1 (UniProt O75459)
inactive: [1] -0.057 | [2] 0.075 | [3] 0.083 | [4] 0.08 | entinostat -0.018 | vorinostat -0.061 | citarinostat -0.129 | silmitasertib -0.01 | [5] -0.059 | [6] -0.024 | entospletinib 0.054

PARD6B (UniProt Q9BYG5)
inactive: [1] -0.043 | [2] -0.176 | [3] -0.094 | [4] 0.021 | entinostat 0.138 | vorinostat -0.027 | citarinostat -0.083 | silmitasertib 0.077 | [5] -0.087 | [6] -0.136 | entospletinib 0.073

PAIP1 (UniProt Q9H074)
inactive: [1] 0.008 | [2] -0.059 | [3] -0.062 | [4] -0.039 | entinostat -0.016 | vorinostat 0.054 | citarinostat 0.023 | silmitasertib 0.008 | [5] -0.012 | [6] -0.047 | entospletinib 0.028

PDCD10 (UniProt Q9BUL8)
inactive: [1] 0.103 | [2] 0.024 | [3] -0.124 | [4] -0.031 | entinostat -0.045 | vorinostat 0.01 | citarinostat 0.045 | silmitasertib 0.015 | [5] -0.053 | [6] -0.014 | entospletinib -0.053

PALM3 (UniProt A6NDB9)
inactive: [1] -0.055 | [2] 0.09 | [3] 0.027 | [4] 0.16 | entinostat -0.133 | vorinostat -0.088 | citarinostat 0.095 | silmitasertib -0.053 | [5] -0.09 | [6] -0.042 | entospletinib -0.023

Reference: the supplement of paper PMC10849652
